{"source": "PubChem BioAssay AID1224830 (NIAID, 2016)", "purpose": "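Regulators of TLR4 signalling towards TNF-alpha in macrophage-like cells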 (primary screen)", "cells": "human THP-1 monocytic leukaemia cells, TNF dual-luciferase reporter clone, PMA-differentiated to macrophage-like cells", "reagent": "siRNA pool against human genes, 50 nM", "duration": "LPS for 4 h, given about 3 days after siRNA transfection", "treatment": "bacterial LPS (TLR4 ligand), 10 ng/ml", "detection": "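Ratio of firefly to renilla light, scaled to the plate median and expressed as a robust z-score per replicate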", "reading the numbers": "TNF reporter robust z-score: higher = stronger TNF reporter response to LPS", "hit rule": "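Each well counts as active if its z-score is over 2.8 or under -1.5; controls are left without a call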", "note": "This is an unselected part of about 18,000 reagents. Of all reagents, about 2,900 (16%) were called active. 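Calls are made per well; low scores hint the gene aids the LPS response, high scores that it dampens it.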 Repeated entries: four replicate wells of each siRNA pool. Reagent sequences are not shown."}
{"gene":"CLCN2 (chloride voltage-gated channel 2)","TNF reporter robust z-score":-1.61,"activity call":"active"}
{"gene":"CLCN2 (chloride voltage-gated channel 2)","TNF reporter robust z-score":-0.88,"activity call":"inactive"}
{"gene":"CLCN2 (chloride voltage-gated channel 2)","TNF reporter robust z-score":-0.16,"activity call":"inactive"}
{"gene":"CLCN2 (chloride voltage-gated channel 2)","TNF reporter robust z-score":-0.42,"activity call":"inactive"}
{"gene":"FAM181A (family with sequence similarity 181 member A)","TNF reporter robust z-score":-0.17,"activity call":"inactive"}
{"gene":"FAM181A (family with sequence similarity 181 member A)","TNF reporter robust z-score":-0.13,"activity call":"inactive"}
{"gene":"FAM181A (family with sequence similarity 181 member A)","TNF reporter robust z-score":0.11,"activity call":"inactive"}
{"gene":"FAM181A (family with sequence similarity 181 member A)","TNF reporter robust z-score":1.04,"activity call":"inactive"}
{"gene":"DPYSL3 (dihydropyrimidinase like 3)","TNF reporter robust z-score":0.88,"activity call":"inactive"}
{"gene":"DPYSL3 (dihydropyrimidinase like 3)","TNF reporter robust z-score":0.33,"activity call":"inactive"}
{"gene":"DPYSL3 (dihydropyrimidinase like 3)","TNF reporter robust z-score":-0.16,"activity call":"inactive"}
{"gene":"DPYSL3 (dihydropyrimidinase like 3)","TNF reporter robust z-score":2.06,"activity call":"inactive"}
{"gene":"CPQ (carboxypeptidase Q)","TNF reporter robust z-score":-1.33,"activity call":"inactive"}
{"gene":"CPQ (carboxypeptidase Q)","TNF reporter robust z-score":0.63,"activity call":"inactive"}
{"gene":"CPQ (carboxypeptidase Q)","TNF reporter robust z-score":-0.44,"activity call":"inactive"}
{"gene":"CPQ (carboxypeptidase Q)","TNF reporter robust z-score":1.07,"activity call":"inactive"}
{"gene":"KRT84 (keratin 84)","TNF reporter robust z-score":0.03,"activity call":"inactive"}
{"gene":"KRT84 (keratin 84)","TNF reporter robust z-score":0.17,"activity call":"inactive"}
{"gene":"KRT84 (keratin 84)","TNF reporter robust z-score":-1.21,"activity call":"inactive"}
{"gene":"KRT84 (keratin 84)","TNF reporter robust z-score":-0.06,"activity call":"inactive"}
{"gene":"PRPF31 (pre-mRNA processing factor 31)","TNF reporter robust z-score":-1.58,"activity call":"active"}
{"gene":"PRPF31 (pre-mRNA processing factor 31)","TNF reporter robust z-score":-0.19,"activity call":"inactive"}
{"gene":"PRPF31 (pre-mRNA processing factor 31)","TNF reporter robust z-score":-0.76,"activity call":"inactive"}
{"gene":"XKRY (XK related, Y-linked (pseudogene))","TNF reporter robust z-score":0.58,"activity call":"inactive"}
{"gene":"XKRY (XK related, Y-linked (pseudogene))","TNF reporter robust z-score":1.39,"activity call":"inactive"}
{"gene":"XKRY (XK related, Y-linked (pseudogene))","TNF reporter robust z-score":-1.04,"activity call":"inactive"}
{"gene":"XKRY (XK related, Y-linked (pseudogene))","TNF reporter robust z-score":-0.7,"activity call":"inactive"}
{"gene":"NUS1 (NUS1 dehydrodolichyl diphosphate synthase subunit)","TNF reporter robust z-score":0.57,"activity call":"inactive"}
{"gene":"NUS1 (NUS1 dehydrodolichyl diphosphate synthase subunit)","TNF reporter robust z-score":-0.88,"activity call":"inactive"}
{"gene":"NUS1 (NUS1 dehydrodolichyl diphosphate synthase subunit)","TNF reporter robust z-score":-1.01,"activity call":"inactive"}
{"gene":"NUS1 (NUS1 dehydrodolichyl diphosphate synthase subunit)","TNF reporter robust z-score":0.01,"activity call":"inactive"}
{"gene":"ZNF790 (zinc finger protein 790)","TNF reporter robust z-score":1.6,"activity call":"inactive"}
{"gene":"ZNF790 (zinc finger protein 790)","TNF reporter robust z-score":1.28,"activity call":"inactive"}
{"gene":"ZNF790 (zinc finger protein 790)","TNF reporter robust z-score":0.07,"activity call":"inactive"}
{"gene":"ZNF790 (zinc finger protein 790)","TNF reporter robust z-score":0.14,"activity call":"inactive"}
{"gene":"KIAA1586","TNF reporter robust z-score":-0.53,"activity call":"inactive"}
{"gene":"KIAA1586","TNF reporter robust z-score":-0.06,"activity call":"inactive"}
{"gene":"KIAA1586","TNF reporter robust z-score":0.58,"activity call":"inactive"}
{"gene":"KIAA1586","TNF reporter robust z-score":1.04,"activity call":"inactive"}
{"gene":"MYH9 (myosin heavy chain 9)","TNF reporter robust z-score":0.1,"activity call":"inactive"}
{"gene":"MYH9 (myosin heavy chain 9)","TNF reporter robust z-score":-0.11,"activity call":"inactive"}
{"gene":"MYH9 (myosin heavy chain 9)","TNF reporter robust z-score":-0.23,"activity call":"inactive"}
{"gene":"MYH9 (myosin heavy chain 9)","TNF reporter robust z-score":0.06,"activity call":"inactive"}
{"gene":"TIGD2 (tigger transposable element derived 2)","TNF reporter robust z-score":0.59,"activity call":"inactive"}
{"gene":"TIGD2 (tigger transposable element derived 2)","TNF reporter robust z-score":0.44,"activity call":"inactive"}
{"gene":"TIGD2 (tigger transposable element derived 2)","TNF reporter robust z-score":-0.7,"activity call":"inactive"}
{"gene":"TIGD2 (tigger transposable element derived 2)","TNF reporter robust z-score":0.93,"activity call":"inactive"}

6 entries already listed, arranged by “TNF reporter robust z-score”, descending:
{"gene":"DPYSL3 (dihydropyrimidinase like 3)","TNF reporter robust z-score":2.06,"activity call":"inactive"}
{"gene":"FAM181A (family with sequence similarity 181 member A)","TNF reporter robust z-score":1.04,"activity call":"inactive"}
{"gene":"DPYSL3 (dihydropyrimidinase like 3)","TNF reporter robust z-score":0.88,"activity call":"inactive"}
{"gene":"DPYSL3 (dihydropyrimidinase like 3)","TNF reporter robust z-score":0.33,"activity call":"inactive"}
{"gene":"DPYSL3 (dihydropyrimidinase like 3)","TNF reporter robust z-score":-0.16,"activity call":"inactive"}
{"gene":"CPQ (carboxypeptidase Q)","TNF reporter robust z-score":-1.33,"activity call":"inactive"}
